Assay results: PMC10643120 (Nature structural & molecular biology, 2023)
These are yes or no findings as the source states them, for the method shown. In cells and extracts the contact can be indirect. Here binding means that the protein was enriched with, or labelled near, the bait; the list need not be complete. For some of these results: Where a sequence is shown, tags or fusion partners need not be part of it.

Amino acid sequences for entries named in this document (tags omitted). A change or cut given only in a name is not applied to a line headed by its entry.
UniProt F8SK48: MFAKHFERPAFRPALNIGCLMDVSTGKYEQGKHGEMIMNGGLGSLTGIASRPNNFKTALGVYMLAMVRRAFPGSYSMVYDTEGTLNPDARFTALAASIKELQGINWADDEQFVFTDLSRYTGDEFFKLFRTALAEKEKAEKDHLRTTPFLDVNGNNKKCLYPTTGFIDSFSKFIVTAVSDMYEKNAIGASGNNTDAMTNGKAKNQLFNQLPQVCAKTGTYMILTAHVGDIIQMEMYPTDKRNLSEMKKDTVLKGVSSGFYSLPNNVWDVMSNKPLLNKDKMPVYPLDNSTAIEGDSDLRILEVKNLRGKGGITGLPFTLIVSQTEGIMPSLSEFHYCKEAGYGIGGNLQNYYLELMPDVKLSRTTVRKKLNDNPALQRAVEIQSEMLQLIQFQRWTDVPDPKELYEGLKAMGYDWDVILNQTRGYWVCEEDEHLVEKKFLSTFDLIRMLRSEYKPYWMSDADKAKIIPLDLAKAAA
UniProt F8SJN3: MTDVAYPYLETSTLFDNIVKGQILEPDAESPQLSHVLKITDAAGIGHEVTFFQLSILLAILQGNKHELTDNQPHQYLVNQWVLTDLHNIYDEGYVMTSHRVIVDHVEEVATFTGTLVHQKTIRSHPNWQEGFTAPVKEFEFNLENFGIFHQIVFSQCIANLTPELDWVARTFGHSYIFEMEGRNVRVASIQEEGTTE
UniProt F8SJP9: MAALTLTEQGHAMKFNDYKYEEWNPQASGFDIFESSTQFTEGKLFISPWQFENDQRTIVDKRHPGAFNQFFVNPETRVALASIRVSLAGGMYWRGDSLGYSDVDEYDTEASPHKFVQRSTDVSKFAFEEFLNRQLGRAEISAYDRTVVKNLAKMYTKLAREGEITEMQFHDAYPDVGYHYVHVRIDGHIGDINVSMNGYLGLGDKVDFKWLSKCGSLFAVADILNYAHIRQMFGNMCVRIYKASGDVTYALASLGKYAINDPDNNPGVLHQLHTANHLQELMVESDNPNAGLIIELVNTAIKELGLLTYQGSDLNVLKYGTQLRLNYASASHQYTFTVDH
UniProt F8SJT4: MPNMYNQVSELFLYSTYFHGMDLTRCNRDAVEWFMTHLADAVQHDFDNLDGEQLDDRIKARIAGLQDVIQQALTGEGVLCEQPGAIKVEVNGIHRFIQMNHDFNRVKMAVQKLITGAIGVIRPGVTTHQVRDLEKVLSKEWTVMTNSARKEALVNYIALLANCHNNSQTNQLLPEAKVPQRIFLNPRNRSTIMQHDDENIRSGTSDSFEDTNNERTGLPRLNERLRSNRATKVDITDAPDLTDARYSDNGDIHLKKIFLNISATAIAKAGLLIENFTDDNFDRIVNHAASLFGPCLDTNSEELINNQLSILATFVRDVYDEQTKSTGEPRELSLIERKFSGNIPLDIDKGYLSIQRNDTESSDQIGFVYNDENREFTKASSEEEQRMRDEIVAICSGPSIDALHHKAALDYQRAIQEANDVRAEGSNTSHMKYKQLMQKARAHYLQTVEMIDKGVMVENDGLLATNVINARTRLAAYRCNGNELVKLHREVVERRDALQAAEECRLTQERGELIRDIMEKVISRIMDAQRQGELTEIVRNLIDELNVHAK
UniProt F8SJU6: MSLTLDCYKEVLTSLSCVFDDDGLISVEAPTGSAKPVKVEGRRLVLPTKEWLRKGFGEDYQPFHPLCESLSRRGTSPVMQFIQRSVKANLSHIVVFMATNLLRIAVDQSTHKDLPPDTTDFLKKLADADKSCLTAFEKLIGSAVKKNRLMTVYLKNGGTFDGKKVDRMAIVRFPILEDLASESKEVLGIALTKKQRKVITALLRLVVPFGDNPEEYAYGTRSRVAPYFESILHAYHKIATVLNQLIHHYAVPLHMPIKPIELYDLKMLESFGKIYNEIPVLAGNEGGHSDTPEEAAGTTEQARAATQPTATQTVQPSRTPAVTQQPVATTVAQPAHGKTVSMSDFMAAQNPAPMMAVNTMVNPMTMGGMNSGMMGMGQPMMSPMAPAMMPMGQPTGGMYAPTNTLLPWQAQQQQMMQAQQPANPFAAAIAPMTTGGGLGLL
UniProt F8SJY4: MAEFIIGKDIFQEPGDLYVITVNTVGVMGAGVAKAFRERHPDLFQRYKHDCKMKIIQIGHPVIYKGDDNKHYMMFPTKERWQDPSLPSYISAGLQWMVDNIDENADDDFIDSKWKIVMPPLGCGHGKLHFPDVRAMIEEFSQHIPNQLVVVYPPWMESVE
UniProt F8SK05: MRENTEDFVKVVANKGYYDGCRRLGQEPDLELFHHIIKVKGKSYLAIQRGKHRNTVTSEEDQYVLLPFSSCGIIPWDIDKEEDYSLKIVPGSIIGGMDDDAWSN
UniProt F8SK17: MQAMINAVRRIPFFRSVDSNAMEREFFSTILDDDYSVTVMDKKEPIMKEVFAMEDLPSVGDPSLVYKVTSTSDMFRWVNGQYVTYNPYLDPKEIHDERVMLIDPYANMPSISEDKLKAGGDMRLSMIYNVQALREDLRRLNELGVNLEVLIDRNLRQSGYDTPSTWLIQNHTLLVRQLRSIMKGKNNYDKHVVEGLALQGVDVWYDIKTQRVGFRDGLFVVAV
UniProt F8SK21: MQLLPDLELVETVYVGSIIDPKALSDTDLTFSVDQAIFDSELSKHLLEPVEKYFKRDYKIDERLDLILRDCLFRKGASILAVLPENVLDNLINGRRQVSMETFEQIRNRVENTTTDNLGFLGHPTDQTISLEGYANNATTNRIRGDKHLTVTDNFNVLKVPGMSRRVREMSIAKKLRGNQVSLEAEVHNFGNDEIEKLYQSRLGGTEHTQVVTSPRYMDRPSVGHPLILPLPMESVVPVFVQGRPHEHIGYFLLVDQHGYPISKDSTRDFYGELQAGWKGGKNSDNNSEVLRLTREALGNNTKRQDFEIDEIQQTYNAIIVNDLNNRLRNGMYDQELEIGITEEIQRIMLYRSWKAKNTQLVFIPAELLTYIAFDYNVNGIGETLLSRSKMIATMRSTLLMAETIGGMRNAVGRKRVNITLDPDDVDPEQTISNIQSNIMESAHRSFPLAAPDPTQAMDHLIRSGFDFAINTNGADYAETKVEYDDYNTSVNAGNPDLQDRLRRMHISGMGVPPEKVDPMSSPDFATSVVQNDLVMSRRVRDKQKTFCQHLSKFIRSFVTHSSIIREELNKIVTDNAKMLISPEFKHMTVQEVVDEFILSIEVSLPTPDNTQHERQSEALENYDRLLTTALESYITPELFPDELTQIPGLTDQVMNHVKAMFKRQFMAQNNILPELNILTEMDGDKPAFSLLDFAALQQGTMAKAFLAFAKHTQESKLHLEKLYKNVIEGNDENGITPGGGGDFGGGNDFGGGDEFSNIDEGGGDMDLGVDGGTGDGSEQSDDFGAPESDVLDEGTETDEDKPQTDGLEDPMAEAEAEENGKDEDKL
UniProt F8SJ60: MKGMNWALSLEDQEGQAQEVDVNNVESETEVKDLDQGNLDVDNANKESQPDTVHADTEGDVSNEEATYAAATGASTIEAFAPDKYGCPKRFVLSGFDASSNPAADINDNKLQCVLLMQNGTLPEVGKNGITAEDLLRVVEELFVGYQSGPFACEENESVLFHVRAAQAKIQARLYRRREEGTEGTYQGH
UniProt F8SJ62: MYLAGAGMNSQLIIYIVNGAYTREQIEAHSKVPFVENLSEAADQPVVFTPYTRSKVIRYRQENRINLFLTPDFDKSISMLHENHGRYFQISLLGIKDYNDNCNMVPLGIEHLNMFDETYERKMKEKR
UniProt F8SJ65: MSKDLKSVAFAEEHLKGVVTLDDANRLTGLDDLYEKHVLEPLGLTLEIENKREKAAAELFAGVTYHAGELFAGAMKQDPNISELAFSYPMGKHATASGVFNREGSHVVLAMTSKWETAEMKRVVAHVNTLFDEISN
UniProt F8SJM1: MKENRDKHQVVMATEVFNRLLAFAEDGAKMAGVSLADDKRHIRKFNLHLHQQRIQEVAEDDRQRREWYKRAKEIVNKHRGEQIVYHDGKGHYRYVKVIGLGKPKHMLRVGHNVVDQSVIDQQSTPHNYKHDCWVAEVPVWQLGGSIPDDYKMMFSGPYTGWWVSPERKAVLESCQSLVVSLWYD
UniProt F8SJ94: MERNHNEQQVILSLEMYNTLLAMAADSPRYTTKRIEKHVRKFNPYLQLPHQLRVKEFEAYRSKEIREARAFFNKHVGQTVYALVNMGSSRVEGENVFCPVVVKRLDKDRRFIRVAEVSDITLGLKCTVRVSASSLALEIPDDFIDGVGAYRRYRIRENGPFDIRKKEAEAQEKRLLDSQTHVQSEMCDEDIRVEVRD
UniProt F8SJA8: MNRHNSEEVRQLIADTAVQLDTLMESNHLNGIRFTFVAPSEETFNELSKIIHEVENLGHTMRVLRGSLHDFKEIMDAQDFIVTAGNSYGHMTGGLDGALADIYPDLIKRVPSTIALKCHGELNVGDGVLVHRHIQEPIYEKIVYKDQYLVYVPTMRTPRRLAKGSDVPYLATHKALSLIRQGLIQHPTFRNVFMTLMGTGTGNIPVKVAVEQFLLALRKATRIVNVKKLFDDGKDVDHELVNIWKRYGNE
UniProt F8SJE4: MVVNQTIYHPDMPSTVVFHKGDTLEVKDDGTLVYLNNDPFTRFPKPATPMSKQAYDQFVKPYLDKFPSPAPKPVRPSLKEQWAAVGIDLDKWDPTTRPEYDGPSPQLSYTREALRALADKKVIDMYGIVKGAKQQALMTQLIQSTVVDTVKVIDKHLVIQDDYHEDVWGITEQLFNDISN
UniProt F8SJE9: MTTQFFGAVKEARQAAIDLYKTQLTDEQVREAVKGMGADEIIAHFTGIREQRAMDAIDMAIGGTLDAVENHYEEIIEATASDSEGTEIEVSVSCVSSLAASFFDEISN
UniProt F8SJH1: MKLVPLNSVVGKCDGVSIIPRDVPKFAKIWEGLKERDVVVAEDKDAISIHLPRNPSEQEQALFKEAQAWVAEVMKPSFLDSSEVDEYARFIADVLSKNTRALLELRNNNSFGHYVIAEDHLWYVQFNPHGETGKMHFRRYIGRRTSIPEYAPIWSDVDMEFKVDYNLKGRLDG
UniProt F8SJI8: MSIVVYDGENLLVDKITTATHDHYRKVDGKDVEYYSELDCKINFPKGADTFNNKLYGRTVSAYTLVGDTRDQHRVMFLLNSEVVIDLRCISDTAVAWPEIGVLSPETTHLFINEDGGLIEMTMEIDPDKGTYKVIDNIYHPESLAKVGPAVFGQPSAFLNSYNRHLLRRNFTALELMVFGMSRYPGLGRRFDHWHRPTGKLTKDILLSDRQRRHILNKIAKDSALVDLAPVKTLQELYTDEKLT
UniProt F8SJJ0: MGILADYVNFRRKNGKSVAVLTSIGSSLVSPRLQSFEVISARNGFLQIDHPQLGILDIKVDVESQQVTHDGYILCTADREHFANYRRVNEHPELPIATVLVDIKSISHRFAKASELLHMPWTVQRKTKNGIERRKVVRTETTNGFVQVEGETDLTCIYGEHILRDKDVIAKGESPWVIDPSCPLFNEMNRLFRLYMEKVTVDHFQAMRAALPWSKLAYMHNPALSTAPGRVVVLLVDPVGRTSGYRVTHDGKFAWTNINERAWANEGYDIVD
UniProt F8SJK2: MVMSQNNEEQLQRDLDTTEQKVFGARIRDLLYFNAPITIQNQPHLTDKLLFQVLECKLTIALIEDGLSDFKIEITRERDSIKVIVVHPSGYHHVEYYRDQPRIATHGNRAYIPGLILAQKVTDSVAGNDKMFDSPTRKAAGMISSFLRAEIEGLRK
UniProt F8SJK7: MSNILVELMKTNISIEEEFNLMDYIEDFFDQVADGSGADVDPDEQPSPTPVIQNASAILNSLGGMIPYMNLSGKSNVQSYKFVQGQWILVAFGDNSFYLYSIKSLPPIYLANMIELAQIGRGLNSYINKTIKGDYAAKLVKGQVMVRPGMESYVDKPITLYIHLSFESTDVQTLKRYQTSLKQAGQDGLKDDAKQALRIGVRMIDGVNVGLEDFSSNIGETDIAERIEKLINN
UniProt F8SJL0: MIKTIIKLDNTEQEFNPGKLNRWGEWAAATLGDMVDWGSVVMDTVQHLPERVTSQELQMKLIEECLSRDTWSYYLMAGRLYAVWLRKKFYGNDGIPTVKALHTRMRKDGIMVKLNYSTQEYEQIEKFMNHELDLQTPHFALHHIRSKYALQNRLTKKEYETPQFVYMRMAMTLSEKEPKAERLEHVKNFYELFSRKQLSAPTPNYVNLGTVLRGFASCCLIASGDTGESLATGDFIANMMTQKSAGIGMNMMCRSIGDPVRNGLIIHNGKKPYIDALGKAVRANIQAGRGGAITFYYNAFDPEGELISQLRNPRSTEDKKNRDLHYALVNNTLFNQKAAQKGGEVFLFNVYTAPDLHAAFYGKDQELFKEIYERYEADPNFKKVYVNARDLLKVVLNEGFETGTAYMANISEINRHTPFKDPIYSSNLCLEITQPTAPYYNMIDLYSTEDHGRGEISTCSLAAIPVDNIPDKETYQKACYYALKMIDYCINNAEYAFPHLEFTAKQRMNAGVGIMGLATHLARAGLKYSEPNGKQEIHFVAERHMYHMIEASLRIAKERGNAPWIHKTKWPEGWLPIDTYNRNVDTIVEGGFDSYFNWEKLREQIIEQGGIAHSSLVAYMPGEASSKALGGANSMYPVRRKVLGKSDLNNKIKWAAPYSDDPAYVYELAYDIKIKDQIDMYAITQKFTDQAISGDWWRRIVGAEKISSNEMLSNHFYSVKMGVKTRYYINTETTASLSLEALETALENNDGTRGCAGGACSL

T1: miniTurboID-gp53 (ΦPA3 ChmA fused to miniTurboID) (Pseudomonas phage ΦPA3) (UniProt F8SJT5)
T1 sequence: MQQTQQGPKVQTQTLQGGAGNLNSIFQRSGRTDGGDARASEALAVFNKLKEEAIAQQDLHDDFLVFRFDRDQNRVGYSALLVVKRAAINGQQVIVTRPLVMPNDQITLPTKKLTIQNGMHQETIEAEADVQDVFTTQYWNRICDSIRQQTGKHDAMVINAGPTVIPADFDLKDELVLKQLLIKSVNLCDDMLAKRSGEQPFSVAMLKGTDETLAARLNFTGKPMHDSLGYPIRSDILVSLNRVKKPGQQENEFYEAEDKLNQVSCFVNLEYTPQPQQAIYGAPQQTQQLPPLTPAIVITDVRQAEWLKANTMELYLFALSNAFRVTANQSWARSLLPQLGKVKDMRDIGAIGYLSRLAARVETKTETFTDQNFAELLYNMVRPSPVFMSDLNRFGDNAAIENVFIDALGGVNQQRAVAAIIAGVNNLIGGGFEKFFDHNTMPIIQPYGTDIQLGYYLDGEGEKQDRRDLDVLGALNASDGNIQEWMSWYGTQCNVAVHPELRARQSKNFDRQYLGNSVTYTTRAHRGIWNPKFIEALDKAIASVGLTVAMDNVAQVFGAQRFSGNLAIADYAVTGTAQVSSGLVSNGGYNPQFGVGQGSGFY

T2: GFP-tagged ΦPA3 ChmA (gp53) (Pseudomonas phage ΦPA3) (UniProt F8SJT5)
T2 sequence: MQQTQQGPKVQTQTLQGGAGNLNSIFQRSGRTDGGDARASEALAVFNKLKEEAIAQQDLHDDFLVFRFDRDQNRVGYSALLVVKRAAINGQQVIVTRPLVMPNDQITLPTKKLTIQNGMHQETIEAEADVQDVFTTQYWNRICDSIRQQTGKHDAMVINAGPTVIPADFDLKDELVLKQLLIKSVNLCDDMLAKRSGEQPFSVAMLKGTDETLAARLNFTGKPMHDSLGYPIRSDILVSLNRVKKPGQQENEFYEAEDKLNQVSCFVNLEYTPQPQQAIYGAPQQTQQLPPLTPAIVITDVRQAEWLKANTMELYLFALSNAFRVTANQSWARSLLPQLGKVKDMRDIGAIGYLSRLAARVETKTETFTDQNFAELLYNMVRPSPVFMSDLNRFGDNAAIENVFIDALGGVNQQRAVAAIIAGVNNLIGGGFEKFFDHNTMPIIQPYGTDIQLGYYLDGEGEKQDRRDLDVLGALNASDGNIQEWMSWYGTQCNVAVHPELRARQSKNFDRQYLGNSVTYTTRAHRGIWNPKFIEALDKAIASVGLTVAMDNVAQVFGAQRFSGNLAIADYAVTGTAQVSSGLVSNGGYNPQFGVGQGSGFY

B1: ΦPA3 ChmA (gp53), made by the phage (protein, UniProt F8SJT5 1-602)
chain: MQQTQQGPKVQTQTLQGGAGNLNSIFQRSGRTDGGDARASEALAVFNKLKEEAIAQQDLHDDFLVFRFDRDQNRVGYSALLVVKRAAINGQQVIVTRPLVMPNDQITLPTKKLTIQNGMHQETIEAEADVQDVFTTQYWNRICDSIRQQTGKHDAMVINAGPTVIPADFDLKDELVLKQLLIKSVNLCDDMLAKRSGEQPFSVAMLKGTDETLAARLNFTGKPMHDSLGYPIRSDILVSLNRVKKPGQQENEFYEAEDKLNQVSCFVNLEYTPQPQQAIYGAPQQTQQLPPLTPAIVITDVRQAEWLKANTMELYLFALSNAFRVTANQSWARSLLPQLGKVKDMRDIGAIGYLSRLAARVETKTETFTDQNFAELLYNMVRPSPVFMSDLNRFGDNAAIENVFIDALGGVNQQRAVAAIIAGVNNLIGGGFEKFFDHNTMPIIQPYGTDIQLGYYLDGEGEKQDRRDLDVLGALNASDGNIQEWMSWYGTQCNVAVHPELRARQSKNFDRQYLGNSVTYTTRAHRGIWNPKFIEALDKAIASVGLTVAMDNVAQVFGAQRFSGNLAIADYAVTGTAQVSSGLVSNGGYNPQFGVGQGSGFY

Key:
[1] = target: T1, miniTurboID-gp53 (ΦPA3 ChmA fused to miniTurboID) (Pseudomonas phage ΦPA3); assay: proximity labelling; miniTurboID fused to the bait, expressed in P. aeruginosa with 500 μM biotin, cells infected with ΦPA3 (MOI 3), collected 45 min post infection; biotinylated peptides captured on NeutrAvidin beads, LC-MS/MS; normalised to a miniTurboID-GFP control
[2] = target: gp175-miniTurboID (ΦPA3 RecA fused to miniTurboID) (Pseudomonas phage ΦPA3) (UniProt F8SK48); assay: as above
[3] = target: ΦPA3 gp2 with a C-terminal GFP tag (Pseudomonas phage ΦPA3) (UniProt F8SJN3); assay: affinity purification with mass spectrometry; GFP-Trap magnetic agarose pull-down from lysate of ΦPA3-infected P. aeruginosa (45 min post infection), 150 mM NaCl, 0.05% NP-40 substitute washes; mass spectrometry of the full eluate
[4] = target: T2, GFP-tagged ΦPA3 ChmA (gp53) (Pseudomonas phage ΦPA3); assay: as above
[5] = target: ΦPA3 gp2 with a C-terminal GFP tag (Pseudomonas phage ΦPA3) (UniProt F8SJN3); assay: affinity purification with mass spectrometry; GFP-Trap magnetic agarose pull-down from lysate of ΦPA3-infected P. aeruginosa (45 min post infection); the ~70 kDa doublet cut from a Coomassie-stained gel, tryptic mass spectrometry
[6] = target: ΦPA3 gp2 with an N-terminal GFP tag (Pseudomonas phage ΦPA3); assay: affinity purification with mass spectrometry; GFP-Trap magnetic agarose pull-down from lysate of ΦPA3-infected P. aeruginosa (45 min post infection), 150 mM NaCl, 0.05% NP-40 substitute washes; mass spectrometry of the full eluate

Molecule	binding [1]	binding [2]	also measured
ΦPA3 gp2 (ChmB), made by the phage (from UniProt F8SJN3)	binds		
ΦPA3 gp12 (from UniProt F8SJP3)	binds	binds	
ΦPA3 gp14 (from UniProt F8SJP5)	binds		
ΦPA3 gp18 (from UniProt F8SJP9)	binds	binds	
ΦPA3 gp49 (from UniProt F8SJT1)		binds	
ΦPA3 gp52 (from UniProt F8SJT4)	binds		
ΦPA3 gp61 (from UniProt F8SJU3)	binds	binds	
ΦPA3 gp62, made by the phage (from UniProt F8SJU4)	binds	binds	
ΦPA3 gp63 (from UniProt F8SJU5)	binds	binds	binding [3]: binds
ΦPA3 gp64 (from UniProt F8SJU6)	binds	binds	binding [3]: binds
ΦPA3 gp78 (from UniProt F8SJV7)	binds	binds	
ΦPA3 gp85 (from UniProt F8SJW4)	binds		
ΦPA3 gp106 (from UniProt F8SJY2)	binds		
ΦPA3 gp108 (from UniProt F8SJY4)		binds	
ΦPA3 gp119 (Pseudomonas phage ΦPA3)	binds		
ΦPA3 gp131 (from UniProt F8SK05)	binds	binds	
ΦPA3 gp134 (from UniProt F8SK07)	binds	binds	
ΦPA3 gp138 (Pseudomonas phage ΦPA3)	binds		binding [4]: binds
ΦPA3 gp144 (from UniProt F8SK17)		binds	
ΦPA3 gp148 (portal protein), made by the phage (from UniProt F8SK21)	binds		binding [3]: binds
ΦPA3 gp164 (Pseudomonas phage ΦPA3)	binds		
ΦPA3 gp166 (from UniProt F8SK39)	binds	binds	

Molecule	binding [1]	binding [2]	also measured
ΦPA3 gp200 (from UniProt F8SJ43)	binds	binds	
ΦPA3 gp202 (from UniProt F8SJ45)	binds		
ΦPA3 gp210 (from UniProt F8SJ53)		binds	
ΦPA3 gp217 (from UniProt F8SJ60)	binds	binds	
ΦPA3 gp219 (from UniProt F8SJ62)	binds		
ΦPA3 gp222 (from UniProt F8SJ65)	binds	binds	
ΦPA3 gp233 (from UniProt F8SJ76)	binds	binds	
ΦPA3 gp239 (from UniProt F8SJ82)	binds	binds	
ΦPA3 gp247 (from UniProt F8SJM1)	binds	binds	
ΦPA3 gp253 (from UniProt F8SJ94)		binds	
ΦPA3 gp257 (from UniProt F8SJM3)	binds	binds	
ΦPA3 gp271 (from UniProt F8SJA8)	binds	binds	
ΦPA3 gp308 (from UniProt F8SJE4)	binds	binds	
ΦPA3 gp313 (from UniProt F8SJE9)		binds	
ΦPA3 gp335 (from UniProt F8SJH1)	binds	binds	
ΦPA3 gp350 (from UniProt F8SJI4)		binds	
ΦPA3 gp355 (from UniProt F8SJI8)	binds		
ΦPA3 gp358 (from UniProt F8SJJ0)	binds	binds	binding [4]: binds; binding [3]: binds
ΦPA3 gp370 (from UniProt F8SJK2)	binds		
ΦPA3 gp375 (from UniProt F8SJK7)		binds	
ΦPA3 gp378 (from UniProt F8SJL0)	binds		
B1			binding [5]: binds; binding [3]: binds; binding [6]: binds
